± gives the standard deviation of the averaged measurements. Most values lie within the scatter of the assay; repeated measurements hardly agree.
Compound: CC[C@@H](C)Nc1cc(C(=O)N[C@H]2C[C@H]3CC[C@@H](C2)N3c2ccc(C(=O)C3CC3)cn2)c(C)cc1C(N)=O [XL888]
Assay: phosphopeptide melting temperature shift (XL888 minus DMSO); higher = stabilised by drug treatment
Conditions: 100 µM; treatment time 2 h; layout: intact cells; SK-Mel 24
Experimental: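 Phospho-TPP in intact SK-Mel 24 cells treated with 100 uM XL888 or DMSO for 2 h, heated at 10 temperatures (37-67 C) for 3 min, soluble fraction TMT10plex-labelled and TiO2 phospho-enriched. Melting curves were fitted per phosphopeptide; the value is the melting point difference (drug minus vehicle) in each of two biological replicates.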

By UniProt entry, the sequences of proteins in these tests, tags left out. Where a name states a change or a piece, a line headed by the entry shows the natural chain unless it says otherwise.
UniProt Q9UQ35: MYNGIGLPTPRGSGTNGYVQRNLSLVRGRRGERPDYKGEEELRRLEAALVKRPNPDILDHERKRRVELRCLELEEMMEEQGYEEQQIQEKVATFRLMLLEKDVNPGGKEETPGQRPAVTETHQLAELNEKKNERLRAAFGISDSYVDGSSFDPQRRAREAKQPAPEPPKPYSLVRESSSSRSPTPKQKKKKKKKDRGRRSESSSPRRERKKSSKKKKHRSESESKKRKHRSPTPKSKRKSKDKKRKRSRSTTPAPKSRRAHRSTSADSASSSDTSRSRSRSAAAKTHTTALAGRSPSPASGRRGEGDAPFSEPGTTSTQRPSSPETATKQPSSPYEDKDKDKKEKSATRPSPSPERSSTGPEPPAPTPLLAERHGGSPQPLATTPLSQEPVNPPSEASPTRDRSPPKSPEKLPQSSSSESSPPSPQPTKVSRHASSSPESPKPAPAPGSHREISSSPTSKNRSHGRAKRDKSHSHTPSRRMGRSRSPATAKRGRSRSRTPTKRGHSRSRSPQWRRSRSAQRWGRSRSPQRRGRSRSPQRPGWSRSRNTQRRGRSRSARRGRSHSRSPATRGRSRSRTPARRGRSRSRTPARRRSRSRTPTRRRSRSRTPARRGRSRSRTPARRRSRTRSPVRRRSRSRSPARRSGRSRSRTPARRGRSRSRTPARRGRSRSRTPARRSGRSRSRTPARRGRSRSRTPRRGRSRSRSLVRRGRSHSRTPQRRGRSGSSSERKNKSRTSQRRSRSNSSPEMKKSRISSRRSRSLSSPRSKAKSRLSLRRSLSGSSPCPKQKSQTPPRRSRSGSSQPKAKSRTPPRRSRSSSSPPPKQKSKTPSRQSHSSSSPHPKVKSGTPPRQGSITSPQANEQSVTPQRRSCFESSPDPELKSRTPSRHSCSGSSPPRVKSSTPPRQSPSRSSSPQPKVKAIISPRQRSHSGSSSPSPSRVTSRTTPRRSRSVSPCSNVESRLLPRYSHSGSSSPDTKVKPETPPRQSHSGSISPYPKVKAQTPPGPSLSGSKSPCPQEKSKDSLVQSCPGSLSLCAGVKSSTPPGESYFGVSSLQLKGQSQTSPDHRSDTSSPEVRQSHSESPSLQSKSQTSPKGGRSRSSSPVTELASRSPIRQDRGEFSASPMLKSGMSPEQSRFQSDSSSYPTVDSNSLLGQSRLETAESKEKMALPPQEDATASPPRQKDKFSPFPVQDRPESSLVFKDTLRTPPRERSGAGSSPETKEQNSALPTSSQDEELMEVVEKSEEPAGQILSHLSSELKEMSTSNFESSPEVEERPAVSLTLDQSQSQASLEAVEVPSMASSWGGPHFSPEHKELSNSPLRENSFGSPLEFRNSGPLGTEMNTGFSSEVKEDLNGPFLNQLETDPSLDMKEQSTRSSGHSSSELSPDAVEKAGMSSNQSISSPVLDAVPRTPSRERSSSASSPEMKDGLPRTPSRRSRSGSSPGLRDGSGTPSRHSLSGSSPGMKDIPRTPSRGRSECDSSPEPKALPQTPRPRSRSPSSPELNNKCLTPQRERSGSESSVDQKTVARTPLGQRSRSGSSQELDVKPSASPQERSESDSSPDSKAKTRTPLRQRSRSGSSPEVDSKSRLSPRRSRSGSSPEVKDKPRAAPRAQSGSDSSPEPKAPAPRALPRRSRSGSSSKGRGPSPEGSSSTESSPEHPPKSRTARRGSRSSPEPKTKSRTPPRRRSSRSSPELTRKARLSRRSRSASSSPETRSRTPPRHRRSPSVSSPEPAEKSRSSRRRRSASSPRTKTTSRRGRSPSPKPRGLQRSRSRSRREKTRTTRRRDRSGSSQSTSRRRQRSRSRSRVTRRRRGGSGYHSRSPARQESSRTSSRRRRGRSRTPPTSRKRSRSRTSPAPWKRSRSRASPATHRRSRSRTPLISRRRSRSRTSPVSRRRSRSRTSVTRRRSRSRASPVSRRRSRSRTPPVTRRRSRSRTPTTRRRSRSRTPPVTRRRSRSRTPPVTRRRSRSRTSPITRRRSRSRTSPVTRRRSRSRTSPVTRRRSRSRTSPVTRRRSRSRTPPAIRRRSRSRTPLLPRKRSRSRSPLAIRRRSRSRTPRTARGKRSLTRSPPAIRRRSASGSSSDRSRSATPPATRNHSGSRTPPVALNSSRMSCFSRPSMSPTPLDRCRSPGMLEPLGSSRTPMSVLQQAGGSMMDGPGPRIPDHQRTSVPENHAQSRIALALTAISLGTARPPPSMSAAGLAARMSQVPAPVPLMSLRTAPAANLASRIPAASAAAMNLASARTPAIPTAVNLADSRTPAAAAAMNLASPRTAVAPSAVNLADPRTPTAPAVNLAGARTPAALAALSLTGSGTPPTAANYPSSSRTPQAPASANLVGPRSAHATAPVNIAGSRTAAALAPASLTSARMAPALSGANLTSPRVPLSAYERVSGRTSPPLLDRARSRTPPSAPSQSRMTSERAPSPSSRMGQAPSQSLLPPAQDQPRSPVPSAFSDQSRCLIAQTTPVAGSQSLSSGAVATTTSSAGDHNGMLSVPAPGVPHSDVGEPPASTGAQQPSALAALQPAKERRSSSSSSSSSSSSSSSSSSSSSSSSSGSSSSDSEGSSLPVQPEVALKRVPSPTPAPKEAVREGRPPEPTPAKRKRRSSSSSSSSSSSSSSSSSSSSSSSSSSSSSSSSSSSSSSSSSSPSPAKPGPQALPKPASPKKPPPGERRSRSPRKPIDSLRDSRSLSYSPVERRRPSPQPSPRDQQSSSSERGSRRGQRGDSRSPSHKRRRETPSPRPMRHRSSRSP
UniProt Q9Y2W1: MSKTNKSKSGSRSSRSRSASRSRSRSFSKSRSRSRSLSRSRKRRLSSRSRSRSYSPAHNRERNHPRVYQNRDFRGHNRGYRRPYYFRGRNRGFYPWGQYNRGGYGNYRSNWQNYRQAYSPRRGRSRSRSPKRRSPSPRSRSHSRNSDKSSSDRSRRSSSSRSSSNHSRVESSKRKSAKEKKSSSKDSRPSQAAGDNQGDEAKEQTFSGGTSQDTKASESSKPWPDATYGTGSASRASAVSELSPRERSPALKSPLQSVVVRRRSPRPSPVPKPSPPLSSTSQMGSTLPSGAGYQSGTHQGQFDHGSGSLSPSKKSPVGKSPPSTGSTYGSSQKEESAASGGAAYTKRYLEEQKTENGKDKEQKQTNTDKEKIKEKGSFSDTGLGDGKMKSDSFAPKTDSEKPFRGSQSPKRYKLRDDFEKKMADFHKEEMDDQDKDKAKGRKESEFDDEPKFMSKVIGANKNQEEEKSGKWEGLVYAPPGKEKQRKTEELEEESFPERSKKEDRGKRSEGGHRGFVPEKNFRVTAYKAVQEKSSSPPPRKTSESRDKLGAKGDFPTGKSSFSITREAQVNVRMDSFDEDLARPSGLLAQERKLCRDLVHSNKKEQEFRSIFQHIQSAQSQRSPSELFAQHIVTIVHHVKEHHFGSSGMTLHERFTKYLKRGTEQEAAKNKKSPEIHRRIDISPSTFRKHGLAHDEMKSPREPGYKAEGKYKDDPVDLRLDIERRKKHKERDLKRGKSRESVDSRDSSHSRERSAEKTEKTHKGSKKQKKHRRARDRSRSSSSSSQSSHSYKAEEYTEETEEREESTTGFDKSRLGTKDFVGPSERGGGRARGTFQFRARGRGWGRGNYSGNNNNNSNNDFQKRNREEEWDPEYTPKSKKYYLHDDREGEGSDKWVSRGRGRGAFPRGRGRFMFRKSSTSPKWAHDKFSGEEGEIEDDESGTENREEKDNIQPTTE
UniProt P21333, whole entry, looked up: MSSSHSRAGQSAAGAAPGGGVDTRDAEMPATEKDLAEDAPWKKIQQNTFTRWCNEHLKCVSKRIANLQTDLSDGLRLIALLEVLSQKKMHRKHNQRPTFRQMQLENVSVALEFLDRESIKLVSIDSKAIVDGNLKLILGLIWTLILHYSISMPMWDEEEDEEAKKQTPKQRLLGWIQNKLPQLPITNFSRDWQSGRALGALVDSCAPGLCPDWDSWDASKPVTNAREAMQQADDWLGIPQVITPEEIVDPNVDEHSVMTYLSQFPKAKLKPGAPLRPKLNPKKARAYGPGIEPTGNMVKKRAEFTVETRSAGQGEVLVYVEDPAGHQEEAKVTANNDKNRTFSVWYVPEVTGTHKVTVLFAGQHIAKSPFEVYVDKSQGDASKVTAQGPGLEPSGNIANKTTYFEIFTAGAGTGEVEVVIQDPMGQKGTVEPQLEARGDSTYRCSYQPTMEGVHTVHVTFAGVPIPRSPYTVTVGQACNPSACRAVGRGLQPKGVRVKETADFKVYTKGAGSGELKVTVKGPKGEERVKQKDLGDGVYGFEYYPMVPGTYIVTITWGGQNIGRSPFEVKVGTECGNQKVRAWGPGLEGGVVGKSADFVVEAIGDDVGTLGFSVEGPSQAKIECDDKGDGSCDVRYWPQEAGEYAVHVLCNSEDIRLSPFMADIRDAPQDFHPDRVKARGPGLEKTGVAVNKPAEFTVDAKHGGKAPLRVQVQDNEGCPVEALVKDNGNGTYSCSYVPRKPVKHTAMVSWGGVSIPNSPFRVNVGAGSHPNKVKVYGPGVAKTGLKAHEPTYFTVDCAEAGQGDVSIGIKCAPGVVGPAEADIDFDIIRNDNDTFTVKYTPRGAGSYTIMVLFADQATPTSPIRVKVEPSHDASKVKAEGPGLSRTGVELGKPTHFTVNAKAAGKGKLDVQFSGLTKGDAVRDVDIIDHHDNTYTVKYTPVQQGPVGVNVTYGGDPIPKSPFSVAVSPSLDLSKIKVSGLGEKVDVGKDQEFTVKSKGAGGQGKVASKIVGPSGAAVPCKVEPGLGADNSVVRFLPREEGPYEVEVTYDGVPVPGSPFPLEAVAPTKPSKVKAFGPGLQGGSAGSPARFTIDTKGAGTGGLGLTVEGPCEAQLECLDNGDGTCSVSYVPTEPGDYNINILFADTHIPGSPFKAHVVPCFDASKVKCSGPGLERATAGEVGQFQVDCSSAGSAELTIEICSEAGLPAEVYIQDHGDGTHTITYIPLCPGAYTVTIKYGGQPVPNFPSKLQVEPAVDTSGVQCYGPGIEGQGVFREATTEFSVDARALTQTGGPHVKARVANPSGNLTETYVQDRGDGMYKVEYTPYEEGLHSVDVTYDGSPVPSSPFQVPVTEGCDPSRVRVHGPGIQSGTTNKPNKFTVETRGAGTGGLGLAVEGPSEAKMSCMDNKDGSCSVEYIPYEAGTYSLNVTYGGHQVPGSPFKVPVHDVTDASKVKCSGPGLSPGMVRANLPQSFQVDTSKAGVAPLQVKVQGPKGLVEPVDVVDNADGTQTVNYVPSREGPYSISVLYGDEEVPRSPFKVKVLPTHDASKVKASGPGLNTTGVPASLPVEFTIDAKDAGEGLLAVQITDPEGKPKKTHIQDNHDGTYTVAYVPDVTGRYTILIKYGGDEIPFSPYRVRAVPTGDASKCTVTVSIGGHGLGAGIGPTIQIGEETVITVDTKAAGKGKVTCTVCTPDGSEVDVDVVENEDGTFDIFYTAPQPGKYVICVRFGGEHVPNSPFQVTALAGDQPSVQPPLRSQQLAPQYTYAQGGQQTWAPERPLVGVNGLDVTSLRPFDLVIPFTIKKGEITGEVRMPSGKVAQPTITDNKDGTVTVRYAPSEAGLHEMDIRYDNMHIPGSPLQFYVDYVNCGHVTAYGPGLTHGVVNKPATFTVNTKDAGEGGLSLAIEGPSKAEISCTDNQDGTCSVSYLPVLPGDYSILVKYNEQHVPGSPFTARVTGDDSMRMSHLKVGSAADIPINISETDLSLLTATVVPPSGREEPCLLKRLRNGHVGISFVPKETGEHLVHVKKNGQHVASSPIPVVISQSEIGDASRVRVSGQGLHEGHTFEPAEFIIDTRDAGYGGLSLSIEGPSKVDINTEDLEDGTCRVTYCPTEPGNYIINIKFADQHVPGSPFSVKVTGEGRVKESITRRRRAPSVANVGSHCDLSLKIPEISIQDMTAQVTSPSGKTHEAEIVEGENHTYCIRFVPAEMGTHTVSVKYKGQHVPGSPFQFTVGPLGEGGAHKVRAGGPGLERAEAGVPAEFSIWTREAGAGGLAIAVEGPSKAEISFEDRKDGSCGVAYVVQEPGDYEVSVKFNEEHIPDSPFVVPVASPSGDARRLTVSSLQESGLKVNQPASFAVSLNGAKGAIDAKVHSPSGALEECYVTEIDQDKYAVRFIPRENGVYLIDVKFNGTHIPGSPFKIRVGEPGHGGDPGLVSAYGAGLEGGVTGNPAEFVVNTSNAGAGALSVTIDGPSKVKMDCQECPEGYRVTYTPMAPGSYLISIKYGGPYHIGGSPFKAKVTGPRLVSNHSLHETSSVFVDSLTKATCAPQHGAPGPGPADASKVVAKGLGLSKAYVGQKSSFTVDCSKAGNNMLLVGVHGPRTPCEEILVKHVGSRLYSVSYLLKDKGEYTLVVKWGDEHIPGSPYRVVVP
UniProt P43487, whole entry, looked up: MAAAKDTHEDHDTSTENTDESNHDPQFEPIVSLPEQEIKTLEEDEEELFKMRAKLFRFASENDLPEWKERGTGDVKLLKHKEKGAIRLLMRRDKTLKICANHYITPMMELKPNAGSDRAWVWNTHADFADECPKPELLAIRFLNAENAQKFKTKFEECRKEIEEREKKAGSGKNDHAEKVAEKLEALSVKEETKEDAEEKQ

Target	phosphopeptide melting temperature shift
SRRM2 phosphosite_1124 (phosphosite position: 1124) (UniProt Q9UQ35)	2.94 ± 1.7 °C
SRRM2 phosphosite_1219 (phosphosite position: 1219) (UniProt Q9UQ35)	3.24 °C
SRRM2 phosphosite_2397 (phosphosite position: 2397) (UniProt Q9UQ35)	0.0483 °C
SRRM2 phosphosite_2398 (phosphosite position: 2398) (UniProt Q9UQ35)	0.937 °C
STUB1 phosphosite_19 (phosphosite position: 19) (UniProt Q9UNE7)	-0.704 °C
STX12 phosphosite_142 (phosphosite position: 142) (UniProt Q86Y82)	-0.714 ± 2 °C
TALDO1 phosphosite_237 (phosphosite position: 237) (UniProt P37837)	2.05 °C
TERF2IP phosphosite_203 (phosphosite position: 203) (UniProt Q9NYB0)	0.538 °C
THRAP3 phosphosite_243 (phosphosite position: 243) (UniProt Q9Y2W1)	4.38 ± 1.4 °C
THRAP3 phosphosite_535 (phosphosite position: 535) (UniProt Q9Y2W1)	-2.37 °C
THRAP3 phosphosite_672 (phosphosite position: 672) (UniProt Q9Y2W1)	1.5 ± 0.1 °C
TPD52L2 phosphosite_21 (phosphosite position: 21) (UniProt O43399)	1.93 ± 0.39 °C
TRAFD1 phosphosite_415 (phosphosite position: 415) (UniProt O14545)	-1.48 °C
TRIM28 phosphosite_489 (phosphosite position: 489) (UniProt Q13263)	-0.33 ± 0.045 °C
UBE2O phosphosite_896 (phosphosite position: 896) (UniProt Q9C0C9)	0.303 °C
UBXN7 phosphosite_280 (phosphosite position: 280) (UniProt O94888)	0.894 ± 0.36 °C
UniProt A0MZ66-7_phosphosite_94 (phosphosite position: 94)	-0.292 °C
UniProt A4D1E1_phosphosite_877 (phosphosite position: 877)	2.49 °C
UniProt O00499-9_phosphosite_267 (phosphosite position: 267)	1.12 °C
UniProt O00567_phosphosite_520 (phosphosite position: 520)	0.242 °C
UniProt O14617-2_phosphosite_738 (phosphosite position: 738)	0.904 °C
UniProt O15344-2_phosphosite_96 (phosphosite position: 96)	0.289 °C
UniProt O43236-5_phosphosite_178 (phosphosite position: 178)	2.53 °C
UniProt O43314-2_phosphosite_1151 (phosphosite position: 1151)	-0.0417 ± 0.58 °C
UniProt O43432_phosphosite_495 (phosphosite position: 495)	-0.712 ± 0.8 °C

Target	phosphopeptide melting temperature shift
UniProt O60343-2_phosphosite_588 (phosphosite position: 588)	0.724 ± 0.024 °C
UniProt O60504-2_phosphosite_188 (phosphosite position: 188)	3.63 °C
UniProt O60504-2_phosphosite_203 (phosphosite position: 203)	0.906 ± 0.2 °C
UniProt O60524-4_phosphosite_375 (phosphosite position: 375)	0.798 °C
UniProt O75592-2_phosphosite_2751 (phosphosite position: 2751)	0.601 °C
UniProt O94762-4_phosphosite_788 (phosphosite position: 788)	1.59 °C
UniProt O96017-13_phosphosite_39 (phosphosite position: 39)	0.611 °C
UniProt O96017-13_phosphosite_158 (phosphosite position: 158)	-0.896 °C
UniProt P08651-4_phosphosite_289 (phosphosite position: 289)	0.501 °C
UniProt P09651-3_phosphosite_6 (phosphosite position: 6)	-0.744 ± 0.11 °C
UniProt P11274-2_phosphosite_122 (phosphosite position: 122)	0.54 °C
UniProt P16070-18_phosphosite_304 (phosphosite position: 304)	2.12 °C
UniProt P18206-2_phosphosite_721 (phosphosite position: 721)	1.06 ± 0.19 °C
UniProt P18583-2_phosphosite_1378 (phosphosite position: 1378)	8.42 °C
UniProt P18858-2_phosphosite_76 (phosphosite position: 76)	-0.438 °C
UniProt P18858-2_phosphosite_183 (phosphosite position: 183)	0.29 ± 0.49 °C
UniProt P21333-2_phosphosite_968 (phosphosite position: 968)	-0.943 °C
UniProt P21333-2_phosphosite_1459 (phosphosite position: 1459)	0.821 °C
UniProt P21333-2_phosphosite_2150 (phosphosite position: 2150)	0.534 °C
UniProt P21359-2_phosphosite_2494 (phosphosite position: 2494)	1.15 °C
UniProt P29590-2_phosphosite_403 (phosphosite position: 403)	3.69 °C
UniProt P35251-2_phosphosite_156 (phosphosite position: 156)	0.442 °C
UniProt P35606-2_phosphosite_832 (phosphosite position: 832)	0.101 ± 0.52 °C
UniProt P35712-4_phosphosite_126 (phosphosite position: 126)	0.802 ± 0.46 °C
UniProt P40818-2_phosphosite_613 (phosphosite position: 613)	0.761 °C

Random excerpt: 3 records from the list.
Target	phosphopeptide melting temperature shift
STUB1 phosphosite_19 (phosphosite position: 19) (UniProt Q9UNE7)	-0.704 °C
UniProt O60504-2_phosphosite_188 (phosphosite position: 188)	3.63 °C
UniProt O43314-2_phosphosite_1151 (phosphosite position: 1151)	-0.0417 ± 0.58 °C

Later entries

Target	phosphopeptide melting temperature shift
UniProt P41227-2_phosphosite_171 (phosphosite position: 171)	0.732 °C
UniProt P43487-2_phosphosite_187 (phosphosite position: 187)	-1.87 ± 0.78 °C
UniProt P46937-5_phosphosite_164 (phosphosite position: 164)	2.14 °C
UniProt P48634_phosphosite_456 (phosphosite position: 456)	-1.01 °C
UniProt P48634_phosphosite_808 (phosphosite position: 808)	-3.15 °C
UniProt P49959-2_phosphosite_621 (phosphosite position: 621)	-0.678 °C
UniProt P55209-2_phosphosite_69 (phosphosite position: 69)	-0.725 °C
UniProt P56524-2_phosphosite_453 (phosphosite position: 453)	1.57 °C
UniProt P57081-2_phosphosite_390 (phosphosite position: 390)	0.894 ± 0.25 °C
UniProt P61978-2_phosphosite_284 (phosphosite position: 284)	-0.602 °C
UniProt P62070-2_phosphosite_109 (phosphosite position: 109)	-1.82 °C
UniProt P62258_phosphosite_46 (phosphosite position: 46)	1.59 ± 0.3 °C
UniProt P78527_phosphosite_4026 (phosphosite position: 4026)	-1.01 °C
UniProt P83916_phosphosite_91 (phosphosite position: 91)	-0.471 °C
UniProt P85299_phosphosite_11 (phosphosite position: 11)	0.363 °C
UniProt Q3V6T2-5_phosphosite_1651 (phosphosite position: 1651)	2.09 ± 0.34 °C
UniProt Q5JSH3-2_phosphosite_561 (phosphosite position: 561)	0.467 °C
UniProt Q5SYE7-2_phosphosite_1229 (phosphosite position: 1229)	0.182 ± 1.9 °C
UniProt Q5T4S7-3_phosphosite_181 (phosphosite position: 181)	0.92 °C
UniProt Q5VZK9-2_phosphosite_1094 (phosphosite position: 1094)	0.441 °C
UniProt Q5VZK9-2_phosphosite_1246 (phosphosite position: 1246)	3.1 °C
UniProt Q6GQQ9-2_phosphosite_449 (phosphosite position: 449)	1.64 °C
UniProt Q6P2E9-2_phosphosite_498 (phosphosite position: 498)	0.266 °C
UniProt Q6PCT2-2_phosphosite_99 (phosphosite position: 99)	4.71 °C
UniProt Q6UN15-3_phosphosite_418 (phosphosite position: 418)	2.26 ± 1 °C
